These are yes or no findings as the source states them, for the method shown. Some entries that bind do so weakly or less than the wild type. Values belong to the binder of their own block, whether it stands above or below them.
How the values were obtained:
[1] = molecular target: GL2 START domain alone, two-hybrid bait and prey in pGBKT7/pGADT7 (Arabidopsis thaliana) (UniProt P46607); assay: two-hybrid
[2] = molecular target: GL2 START-STAD fragment (253-747), two-hybrid bait and prey in pGBKT7/pGADT7 (Arabidopsis thaliana) (UniProt P46607); assay: two-hybrid

binding [1]: no binding
B1: GL2 START domain alone, two-hybrid bait and prey in pGBKT7/pGADT7 (domain or fragment, UniProt P46607 250-489)
chain: FALEKSRIAEISNRATLELQKMATSGEPMWLRSVETGREILNYDEYLKEFPQAQASSFPGRKTIEASRDAGIVFMDAHKLAQSFMDVGQWKETFACLISKAATVDVIRQGEGPSRIDGAIQLMFGEMQLLTPVVPTREVYFVRSCRQLSPEKWAIVDVSVSVEDSNTEKEASLLKCRKLPSGCIIEDTSNGHSKVTWVEHLDVSASTVQPLFRSLVNTGLAFGARHWVATLQLHCERLVF

binding [2]: binds
B2: GL2 START-STAD fragment (253-747), two-hybrid bait and prey in pGBKT7/pGADT7 (domain or fragment, UniProt P46607 253-747)
chain: EKSRIAEISNRATLELQKMATSGEPMWLRSVETGREILNYDEYLKEFPQAQASSFPGRKTIEASRDAGIVFMDAHKLAQSFMDVGQWKETFACLISKAATVDVIRQGEGPSRIDGAIQLMFGEMQLLTPVVPTREVYFVRSCRQLSPEKWAIVDVSVSVEDSNTEKEASLLKCRKLPSGCIIEDTSNGHSKVTWVEHLDVSASTVQPLFRSLVNTGLAFGARHWVATLQLHCERLVFFMATNVPTKDSLGVTTLAGRKSVLKMAQRMTQSFYRAIAASSYHQWTKITTKTGQDMRVSSRKNLHDPGEPTGVIVCASSSLWLPVSPALLFDFFRDEARRHEWDALSNGAHVQSIANLSKGQDRGNSVAIQTVKSREKSIWVLQDSSTNSYESVVVYAPVDINTTQLVLAGHDPSNIQILPSGFSIIPDGVESRPLVITSTQDDRNSQGGSLLTLALQTLINPSPAAKLNMESVESVTNLVSVTLHNIKRSLQIEDC

Reference: paper doi:10.1101/2021.11.23.469727 (bioRxiv, 2021)
